US20180282410A1
No constants are given. Whether binding was seen depends on the method and setting. Some entries that bind do so weakly or less than the wild type.

Molecular target: murine (mu) Robo 4 ECD-PreS-Avi-His (mouse)
Assay: ELISA, hybridoma supernatant on coated antigen

binding	Binder
binds	01F05 hybridoma clone (Armenian hamster IgG, supernatant) (antibody, V domains shown) VH: QVQLKQSGAELVKPGASVKISCKTSVYTFTYGYMHWVEQKPGQGLEWIGRIDPDSGNSMYNQKFQGRATLTRDKSSSTVYMELRSLTSEDSAVYYCARSMRYSGYRDYALDLWGQGTQVTVSS VL: QLVLTQSPSASASLGASVKLTCTLSSQHSSYGITWLQQHPDKAPKYVMYLKSDGSHTKGADIPDRFSGSSSGVHRYLSISNVQPEDEAIYFCVTYDSTHVFGSGTQLTVLG
binds	01F09 hybridoma clone (Armenian hamster IgG, supernatant) (antibody, V domains shown) VH: QIQLQESGPGLVKPSQSLSLTCSVTGYSISSGSLWTWIRQFPGNNLEWMGYISYAGGIDYNPSLTSRISITRDTSRNQFFLQLESVTTQDTATYYCATPGGYPFHFDYWGQGTMVTVSS VL: QPVLTQSPSASASLGASVKLTCTLNSQFSTYNIGWYQQHRDKPPKYVMFVKGDGGHSKADGIPDRFSGSSSGADRYLTISNIQAEDEAIYFCGADYNNAGQYGCVFGSGTHFTVLG
binds	01E06 hybridoma clone (Armenian hamster IgG, supernatant) (antibody, V domains shown) VH: EVQLVESGGGLSQPGNSLKLSCEASGFTFRNYDMSWVRQAPGKGLEWVAYISSGGGPIYYVDAVKGRFTISRDNAKNLLFLQMNNLRSEDTAVYYCARDLADIGVFDYWGQGTMVTVSS VL: DFKMTQSPDILSPSLGESVTITCQSSQNIYSNLAWYQQKPGEHPKLLIYTASILADGIPSRFTGSGSGTQFSLKISSLQPDDVANYYCQQYVYYRTFGPGTKLEIK
